Measurements reported in PubChem BioAssay AID652272 (Drosophila RNAi Screening Center, 2013)

Assay: 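Genome-wide knock-down search for components of Hedgehog signalling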 (primary screen)
Cells: Drosophila clone 8 (Cl8) cells
Knock-down reagent: long dsRNA against Drosophila genes
Measurement: 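Plate reader light from a firefly reporter under a ptc promoter fragment that responds to Hedgehog, with Renilla light as transfection reference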
Direction: firefly Hh reporter signal: higher = more ptc reporter light; Renilla reference signal: higher = more Renilla control light
Call rule: 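Called a hit if the two-replicate mean z-score lies below -2 or above +3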
Calls: active = hit: reporter lowered or raised; inactive = not a hit
The screen tested about 21,000 reagents; below is an unselected part of those that have a named target and a result. Over the whole deposit, 503 (2.4%) got an active call. 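Raw plate light values, not normalised; calls rest on replicate z-scores that were not deposited; hits include reporter decreases as well as increases.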 A plus sign joins genes that one reagent is predicted to hit. Not stated in the record: the amount of reagent, the time to read-out.

gene,DRSC id,"firefly Hh reporter signal, replicate 1","firefly Hh reporter signal, replicate 2","Renilla reference signal, replicate 1","Renilla reference signal, replicate 2",activity call
Nckx30C,DRSC02686,98000,65829,2403,5306,inactive
Nckx30C,DRSC02687,1.20e5,89648,3244,6656,inactive
Nckx30C,DRSC02688,99648,75545,2401,5472,inactive
Nckx30C,DRSC02689,74848,50048,2384,4673,inactive
Hdc,DRSC07439,61163,26816,2793,1273,inactive
CG3546,DRSC18308,89184,1.92e5,3014,6864,inactive
pod1,DRSC18362,75108,46041,1840,1082,inactive
CG33964 + CG13175,DRSC06300,85052,62049,2320,4736,inactive
CG33964 + CG13175,DRSC06301,62957,52746,1702,4113,inactive
CG33964 + CG13175,DRSC07184,1.03e5,44704,2771,3696,inactive
tei,DRSC07616,1.05e5,72521,2592,3824,inactive
CG14627,DRSC18630,63687,1.31e5,2121,5739,inactive
MtnF,DRSC13683,46688,1.58e5,10472,3208,inactive
SF1,DRSC16844,53322,84057,1707,2041,inactive
CG18765,DRSC15392,1.08e5,1.29e5,3340,3216,inactive
Adgf-A,DRSC10566,82848,56236,3437,2353,inactive
CG16800,DRSC02518,1.40e5,62438,3429,5819,inactive
CG9776,DRSC12127,1.69e5,1.23e5,7112,4768,inactive
Blos1,DRSC05970,59852,46549,1701,3440,inactive
Pdhb,DRSC14420,99197,75104,2375,2308,inactive
Lcp65Ag3 + Lcp65Ag2 + Lcp65Ag1,DRSC11214,43755,47165,5616,4664,inactive
Lcp65Ag3 + Lcp65Ag2 + Lcp65Ag1,DRSC11215,41277,57628,5034,5008,inactive
CG13038,DRSC09919,1.64e5,,2056,5104,inactive
Cyp28d2,DRSC03299,1.09e5,49856,2826,4976,inactive
und,DRSC03629,1.06e5,76882,4647,2832,inactive
CG12539,DRSC19470,82528,1.76e5,2705,6877,inactive
CG12863,DRSC06203,1.03e5,54056,2540,4392,inactive
Prosalpha3,DRSC04644,51965,33835,1898,4681,active
Doc1,DRSC11146,45767,95556,3584,6828,inactive
CG42686 (retired record),DRSC15247,23804,2.19e5,1062,13241,inactive
CG42686 (retired record),DRSC15248,5.31e5,1.03e5,28584,3430,inactive
CG13978,DRSC14720,1.29e5,1.19e5,4420,2378,inactive
CG12194,DRSC00345,1.05e5,73812,2768,5437,inactive
Rb97D,DRSC16815,77430,93715,3062,2748,inactive
CG34133,DRSC16319,1.12e5,52888,2720,1728,inactive
CG31088,DRSC13123,1974,2.29e5,474,4077,inactive
CG9356,DRSC16476,1.19e5,94597,4666,3984,inactive
CG17029,DRSC10240,1.49e5,,1957,4196,inactive
Cog7,DRSC16331,1.33e5,2.00e5,5184,6384,inactive
